Source: PubChem BioAssay AID504444 (National Center for Advancing Translational Sciences (NCATS), 2011)
About 7,500 (2.1%) of roughly 360,000 compounds were called active. Inconclusive results, whose numbers are uncertain, are shown with a selection of clear calls. The call rests on the fitted dose curve; in most records, active means well fitted inhibition curve with a large enough effect; inconclusive means small, poorly fitted or top-dose-only effect, or effect the other way; inactive means flat fitted curve, though single readings scatter. Where the call is inconclusive, the potency comes from a doubtful curve fit.

Assay: Nrf2 qHTS screen for inhibitors; further: nearly all actives have a fitted effect of over 60% in size
Details: A549 ARE-Fluc reporter, luciferase luminescence, 18-24 h; series mostly up to 46 µM
Method in brief: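 In this cell-based qHTS, ARE-driven firefly luciferase in A549 cells reports Nrf2 activity; the luminescent signal after BugLite lysis is the measured value, with a prior CellTiter-Fluor read for cell health.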
Potency means the concentration at half of the fitted maximal effect.

| SMILES | Potency |
| --- | --- |
| Cc1c(C(=O)Oc2ccc(-c3cnc4ccccc4n3)cc2)cccc1[N+](=O)[O-] | inconclusive: 11.6 µM [activator, partial curve] |
| CCc1ccc(NC(=O)Cn2nc(C(F)(F)F)c3c2CCC3)cc1 | inconclusive: 16.4 µM [falling, partial curve] |
| O=C(CSc1nc(-c2ccccc2)[nH]c1-c1ccccc1)Nc1ccc2c(c1)OCO2 | inconclusive: 23.1 µM [falling, single point] |
| COc1ccc(C)cc1NC(=O)Cn1c(=O)oc2ccccc21 | inconclusive: 29.1 µM [activator, single point] |
| COc1cccc(-c2ccc(NC(=O)C3CCCN(Cc4cc(C)[nH]n4)C3)cc2)c1 (stereo unspecified) | inactive |
| Cc1c(Nc2nc(-c3ccc(Cl)cc3)cs2)c(=O)n(-c2ccccc2)n1C | inconclusive: 14.6 µM [falling, single point] |
| CC1=NC(=O)C(N=Nc2ccccc2)N1c1ccccc1 (stereo unspecified) | inconclusive: 7.31 µM [activator, partial curve] |
| O=[N+]([O-])c1cc(-c2nc(-c3ccccc3)no2)ccc1N1CCCC1 | inactive |
| COc1ccccc1NC(=O)NN1CCCCC1 | inconclusive: 2.91 µM [activator, full curve, poor fit] |
| Cc1nc2cc(-c3ccc(Br)cc3)[nH]n2c(=O)c1Cl | inconclusive: 13 µM [activator, partial curve] |
| NCCCC(N)(C(=O)O)C(F)F (stereo unspecified) | inconclusive: 1.64 µM [falling, partial curve, poor fit] |
| CC(C)NS(=O)(=O)c1ccc2c3c(cccc13)CC2 | inconclusive: 20.6 µM [falling, single point] |
| COc1ccc(CNc2ncnc3c2[nH]c2ccccc23)cc1 | active: 4.61 µM |
| Cc1ccc(/C(O)=C/C(=O)C(=O)NNC(=O)C(O)(c2ccccc2)c2ccccc2)cc1 | inconclusive: 16.4 µM [falling, partial curve, poor fit] |
| CC(C)CNc1nc(C#N)nc(Nc2ccccc2)n1 | inconclusive: 23.1 µM [falling, single point] |
| CCC(=O)N1N=C(c2cccs2)CC1c1ccc(C)cc1 (stereo unspecified) | inactive |
| Cc1ccc(OC(C)C(=O)N2CC(=O)Nc3ccccc32)cc1 (stereo unspecified) | inconclusive: 1.84 µM [activator, full curve, poor fit] |
| Fc1ccc(Nc2nc3nonc3nc2Nc2cccc(C(F)(F)F)c2)cc1 | active: 1.46 µM |
| CCN1CCSc2ccc(C(=O)NCc3cccc(F)c3)cc21 | inconclusive: 10.3 µM [falling, partial curve, poor fit] |
| O=C(Cn1c(=O)n(-c2ccc(Cl)cc2)c(=O)c2c3c(sc21)CCC3)c1ccc(F)cc1 | inconclusive: 7.31 µM [activator, partial curve, poor fit] |
| Cc1ccc(NC(=O)Cn2cnc3c(oc4nc5c(cc43)COC(C)(C)C5)c2=O)cc1 | inconclusive: 10.3 µM [activator, partial curve, poor fit] |
| Cc1nnc(C)c2c(C)n(N)c(C)c12 | inconclusive: 7.31 µM [falling, single point] |

| SMILES | Potency |
| --- | --- |
| O=C(/C=C/c1ccco1)NC(=S)Nc1ccccc1N1CCOCC1 | inconclusive: 23.1 µM [falling, single point] |
| CCn1c(=O)c2c(cnn2C)c2ccccc21 | inconclusive: 5.8 µM [falling, partial curve] |
| CC(=O)c1cccc(NCc2ccccc2-c2nnc(-c3ccccc3)o2)c1 | inconclusive: 14.6 µM [activator, partial curve] |
| NS(=O)(=O)c1ccc(N/N=C/c2ccccn2)c([N+](=O)[O-])c1 | inconclusive: 23.1 µM [falling, single point] |
| O=C(NC1(C(F)(F)F)NC(=O)N(CCc2ccccc2)C1=O)c1ccccc1Cl (stereo unspecified) | inconclusive: 29.1 µM [falling, partial curve, poor fit] |
| COc1ccc(NC(=O)Cn2nnc(-c3ccccc3NC(=O)c3cccs3)n2)cc1 | active: 18.4 µM |
| O=C1NC(=S)S/C1=C/c1ccc(N2CCOCC2)o1 | inactive |
| COc1ccc2[nH]c(C(=O)N3CCN(C)CC3)c(C)c2c1 | inactive |
| COc1ccc(-c2csc(NC(=O)C3CC(=O)N(Cc4ccccc4)C3)n2)cc1OC (stereo unspecified) | inconclusive: 20.6 µM [falling, single point] |
| Cc1nc2cc(NC(=O)N3CCCCC3)ccc2n1C | inconclusive: 20.6 µM [activator, single point] |
| O=C(c1ccc(Br)o1)N1CCN(c2ccc(F)cc2)CC1 | inconclusive: 13 µM [falling, partial curve, poor fit] |
| O=C(Nc1ccc(NC(=O)c2ccco2)nc1)c1ccco1 | inconclusive: 23.1 µM [activator, single point] |
| c1ccc(-c2nc3c4ccccc4ccn3c2CN2CCOCC2)cc1 | inconclusive: 25.9 µM [activator, single point] |
| Cc1cccc(C)c1NC(=S)Nc1ccccc1C(=O)NCc1ccco1 | inconclusive: 25.9 µM [falling, partial curve] |
| CCOC(=O)C(CC)Sc1ncnc2sc3c(c12)CCCC3 (stereo unspecified) | inactive |
| CCCCCCn1c(N2CCC(C)CC2)nc2c1c(=O)[nH]c(=O)n2C | inconclusive: 29.1 µM [falling, single point] |
| O=c1[nH]c(=O)n(Cc2ccccc2)c2nc(-c3ccc(Oc4ccc(F)cc4)c([N+](=O)[O-])c3)n(CCO)c12 | inconclusive: 29.1 µM [falling, single point] |
| CSc1ncccc1C(=O)NC1CCN(Cc2ccccc2)CC1 | inactive |
| COc1ccc(OC)c(S(=O)(=O)N2CCC(C(=O)N3CCN(c4ccc(F)cc4)CC3)CC2)c1 | inconclusive: 8.2 µM [falling, partial curve, poor fit] |
| O=C(Nc1ccc(F)cc1)C1CCN(c2nc3ccccc3n3cccc23)CC1 | inactive |
| CCOC(=O)C1CCCN(C(=O)c2c(C)nn(-c3ccc(F)cc3)c2-n2cccc2)C1 (stereo unspecified) | inconclusive: 18.4 µM [activator, partial curve, poor fit] |
| O=C(Nc1ccc2c(c1)CCC2)c1cccc(S(=O)(=O)N2CCN(c3ccccc3)CC2)c1 | inconclusive: 0.13 µM [falling, full curve, poor fit] |

Six compounds drawn at random from the list so far:

| SMILES | Potency |
| --- | --- |
| Cc1c(C(=O)Oc2ccc(-c3cnc4ccccc4n3)cc2)cccc1[N+](=O)[O-] | inconclusive: 11.6 µM [activator, partial curve] |
| CCOC(=O)C1CCCN(C(=O)c2c(C)nn(-c3ccc(F)cc3)c2-n2cccc2)C1 (stereo unspecified) | inconclusive: 18.4 µM [activator, partial curve, poor fit] |
| CCOC(=O)C(CC)Sc1ncnc2sc3c(c12)CCCC3 (stereo unspecified) | inactive |
| O=C(Nc1ccc(NC(=O)c2ccco2)nc1)c1ccco1 | inconclusive: 23.1 µM [activator, single point] |
| Cc1nnc(C)c2c(C)n(N)c(C)c12 | inconclusive: 7.31 µM [falling, single point] |
| Cc1ccc(/C(O)=C/C(=O)C(=O)NNC(=O)C(O)(c2ccccc2)c2ccccc2)cc1 | inconclusive: 16.4 µM [falling, partial curve, poor fit] |

(more compounds)

| SMILES | Potency |
| --- | --- |
| CCS(=O)(=O)N1CCc2cc(C(=O)Nc3cccc(C)c3C)ccc21 | inconclusive: 18.4 µM [falling, single point] |
| Cc1c(C(=O)N/N=C/C(C)C)[nH]c2ccc([N+](=O)[O-])cc12 | inconclusive: 0.731 µM [falling, full curve, poor fit] |
| CSc1ccc(CCNC(=O)CCn2c(=O)c3cccn3c3cccnc32)cc1 | inconclusive: 14.6 µM [activator, single point] |
| Cc1cc(C)c([N+](=O)[O-])cc1NC(=O)CCSc1ccccc1Cl | inconclusive: 16.4 µM [falling, partial curve, poor fit] |
| CC1(C)NC(=O)N(CCCOc2ccc(Br)cc2Cl)C1=O | inconclusive: 10.3 µM [activator, partial curve] |
| Cc1c(-c2nsc(NC(=O)c3cccs3)n2)nnn1-c1ccc(Cl)cc1 | inactive |
| O=C(C1CCN(S(=O)(=O)c2cccs2)CC1)N1CCN(c2cccc(Cl)c2)CC1 | inconclusive: 16.4 µM [falling, single point] |
| O=S(=O)(Nc1ccc2ccccc2n1)c1ccccc1 | inactive |
| CCN(CC)CCCNC(=O)c1ccc2c(c1)N(Cc1c(F)cccc1Cl)C(=O)c1ccccc1S2 | inactive |
| O=C(OCCN(C1=NS(=O)(=O)c2ccccc21)c1ccccc1Cl)c1ccc(Cl)cc1 | inconclusive: 29.1 µM [falling, single point] |
| O=C(c1cccc(COc2ccc(Cl)cc2Cl)c1)N1CCN(c2ccccn2)CC1 | inconclusive: 0.82 µM [activator, full curve, poor fit] |
| O=C(NCCc1c[nH]c2ccccc12)c1ccccc1 | inconclusive: 20.6 µM [activator, single point] |
| CSc1ncc2c(n1)-c1ccccc1N(Cc1ccc(F)cc1)S2(=O)=O | inconclusive: 29.1 µM [falling, single point] |
| COc1ccccc1-c1nc(COc2ccc(Cl)cc2Cl)no1 | inconclusive: 18.4 µM [activator, partial curve] |
| CNC(=S)Nc1ccc(N2CCN(c3ccc(C(F)(F)F)cn3)CC2)nc1 | active: 4.11 µM |
| O=C1c2ccccc2CC1(Cc1ccccc1)Cc1ccccc1 | inconclusive: 18.4 µM [falling, single point] |
| COC(=O)[C@]1(Cc2ccccc2)N[C@H](CN(C)S(=O)(=O)c2ccc(OC(F)(F)F)cc2)[C@@H]2C(=O)N(Cc3ccccc3)C(=O)[C@@H]21 | inactive |
| COc1ccc(C2c3c(N)nc(CCc4ccccc4)nc3Oc3ccc4ccccc4c32)cc1OC (stereo unspecified) | inconclusive: 32.6 µM [falling, partial curve, poor fit] |
| O=S(=O)(c1ccccc1F)N1CCc2ccccc2C1 | inactive |
| Cc1cccc(-n2ncc(C(=O)N3CCc4ccccc4C3)c2C2CCN(C(=O)OC(C)(C)C)CC2)c1 | inconclusive: 29.1 µM [activator, single point] |
| CC1(CCc2ccccc2)NC(=O)N(CC(=O)Nc2c(F)cccc2F)C1=O (stereo unspecified) | inactive |
| O=c1[nH]c(/C=C2\C=Nc3ccccc32)c(O)n1Cc1ccccc1F | inconclusive: 6.51 µM [activator, single point] |
